{"sequences": {"note": "Sequences of proteins named here, by UniProt entry; tags and fusion partners are left off.", "UniProt Q8NER1, whole entry, looked up": "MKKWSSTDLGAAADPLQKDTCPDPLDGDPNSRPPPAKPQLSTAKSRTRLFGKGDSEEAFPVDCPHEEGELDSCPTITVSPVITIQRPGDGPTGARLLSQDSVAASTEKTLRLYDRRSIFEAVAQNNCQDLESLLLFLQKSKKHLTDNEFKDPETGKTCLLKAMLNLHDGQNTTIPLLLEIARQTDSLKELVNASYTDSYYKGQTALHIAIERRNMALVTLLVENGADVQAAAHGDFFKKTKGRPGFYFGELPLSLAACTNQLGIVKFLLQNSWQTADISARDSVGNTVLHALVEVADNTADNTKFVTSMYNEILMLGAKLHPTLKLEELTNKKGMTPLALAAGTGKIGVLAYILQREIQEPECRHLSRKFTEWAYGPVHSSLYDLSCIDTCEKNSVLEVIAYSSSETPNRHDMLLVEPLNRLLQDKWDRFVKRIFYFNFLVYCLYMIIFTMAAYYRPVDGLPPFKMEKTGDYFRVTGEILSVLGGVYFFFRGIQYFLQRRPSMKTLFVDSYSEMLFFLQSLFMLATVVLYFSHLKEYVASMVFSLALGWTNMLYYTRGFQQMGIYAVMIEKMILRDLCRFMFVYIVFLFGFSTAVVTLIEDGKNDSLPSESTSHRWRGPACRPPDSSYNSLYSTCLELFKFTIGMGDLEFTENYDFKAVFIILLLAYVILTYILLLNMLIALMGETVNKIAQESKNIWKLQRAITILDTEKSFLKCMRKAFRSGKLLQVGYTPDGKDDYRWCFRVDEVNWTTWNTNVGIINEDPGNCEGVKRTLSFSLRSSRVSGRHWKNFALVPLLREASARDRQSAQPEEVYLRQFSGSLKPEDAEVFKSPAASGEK"}, "source": "PubChem BioAssay AID540275", "about": "(National Center for Advancing Translational Sciences (NCATS), 2011)", "note": "Out of some 320,000 compounds screened, about 620 (0.19%) were called active. The shares of active, inactive and inconclusive entries below differ from those in the screen. Cut-off read from the data, not from the text of the source: active = activation above about 80%; inconclusive = between about 30% and that limit; inactive = weaker than that."}
{"biological_target": "Transient receptor potential cation channel subfamily V member 1 (Homo sapiens) (UniProt Q8NER1)", "test": "HTS Assay for Compounds that Act as Agonists of the Vanilloid Receptor 1; note: 0% is about no effect", "details": "TRPV1-expressing cells, Fluo-8 calcium influx, agonist mode; at 8.33 µM, active compounds read high", "outline": "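Cells expressing TRPV1 were dye-loaded with Fluo-8 and read kinetically: 10 s baseline, 3 min after compound (agonist portion), then 2 min after EC20 capsaicin (allosteric enhancer portion). Calcium-bound dye fluorescence at 480/520 nm.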"}
{"compound": "COc1ccccc1C(=O)Nc1ccc(C)c(S(=O)(=O)N2CCCCC2)c1", "activation": "inconclusive: 46.5%"}
{"compound": "C=CCNC(=S)Nc1ccc(F)cc1F", "activation": "inactive: 1.96%"}
{"compound": "O=C(COc1ccc2ccccc2c1)Nc1ccncc1", "activation": "inconclusive: 75.2%"}
{"compound": "COc1cccc(/C=N/n2c(C)nc3ccccc32)c1OC", "activation": "inconclusive: 36.4%"}
{"compound": "COC(=O)c1ccc(-n2c(C)cc(/C=N/Nc3nc(C)cc(=O)[nH]3)c2C)cc1", "activation": "inactive: 3.67%"}
{"compound": "O=C(Nc1ccc2nn(-c3ccccc3)nc2c1)c1cccs1", "activation": "inconclusive: 38.5%"}
{"compound": "CC(=O)Nc1ccc(SCC(=O)c2cc(C)n(Cc3cccs3)c2C)cc1", "activation": "inactive: -3.89%"}
{"compound": "COc1ccc(S(=O)(=O)N2CCN(Cc3ccccc3)CC2)cc1OC", "activation": "inactive: 12.1%"}
{"compound": "COc1ccccc1-c1ccc(Nc2cccc(C(F)(F)F)c2)nn1", "activation": "inactive: -6.75%"}
{"compound": "O=C(Nc1cccc2cccnc12)c1ccc(Br)cc1", "activation": "inactive: 14.4%"}
{"compound": "Cc1cccc(N2CCN(S(=O)(=O)c3cc(-c4cc(C)no4)ccc3C)CC2C)c1", "note": "(configuration not stated)", "activation": "inactive: 28.6%"}
{"compound": "CC(CCc1ccccc1)NC(=O)Cc1ccc(Br)cc1", "note": "(configuration not stated)", "activation": "inconclusive: 77.1%"}
{"compound": "O=C(NC1CCS(=O)(=O)C1)c1cccc(Br)c1", "note": "(configuration not stated)", "activation": "inactive: -0.337%"}
{"compound": "COc1ccc(-c2nn(-c3ccccc3)cc2CNCc2cccnc2)c(F)c1", "activation": "inconclusive: 37.5%"}
{"compound": "O=C(NC(c1cccnc1)C(F)(F)F)c1cc(COc2ccc3c(c2)CCCC3)on1", "note": "(configuration not stated)", "activation": "inconclusive: 56.8%"}
{"compound": "COc1cc(/C=N/NC(=O)C(=O)/C=C2\\NC(C)(C)Cc3ccccc32)ccc1O", "activation": "inconclusive: 73.3%"}
{"compound": "C#CCN1C(C)=C(C(=O)OC)C(c2cccc([N+](=O)[O-])c2)C(C(=O)OCC)=C1C", "note": "(configuration not stated)", "activation": "inconclusive: 44.2%"}
{"compound": "O=C(c1ccc(C23CC4CC(CC(C4)C2)C3)o1)N1CCOCC1", "activation": "inconclusive: 70.5%"}
{"compound": "COc1c(F)c(F)c(C(=O)Nc2c(C)cc(Br)cc2C)c(F)c1F", "activation": "inconclusive: 55.4%"}
{"compound": "CC1(C)CC(=O)C=C(NCCN2CCN(C(=S)NC3CCCCC3)CC2)C1", "activation": "inactive: 3.24%"}
{"compound": "Cc1ccc2c(c1)N(C(=O)CCC(=O)NCc1cccc(Cl)c1)CC(C)O2", "note": "(configuration not stated)", "activation": "inconclusive: 37.8%"}
{"compound": "CCOCCn1c(CN(Cc2ccccc2)Cc2ccccc2)nc2c1c(=O)n(C)c(=O)n2C", "activation": "inconclusive: 32.3%"}
{"compound": "CC(O)C(NC(=O)OCc1ccccc1)C(=O)OCc1ccccc1", "note": "(configuration not stated)", "activation": "inconclusive: 32%"}
{"compound": "Cc1ccc(C(=O)/C=C/c2c[nH]c3ccccc23)cc1", "activation": "inconclusive: 42.4%"}
{"compound": "N#Cc1cnc2c(-c3ccccc3)c(-c3ccccc3)nn2c1N", "activation": "inactive: 6.7%"}
{"compound": "O=C(CSCc1cccc(Cl)c1)N1CCN(Cc2ccc3c(c2)OCO3)CC1", "activation": "inconclusive: 50.5%"}
{"compound": "CCCCC(=O)Nc1nn(CC(C)C)c2nc3ccccc3cc12", "activation": "inconclusive: 35.3%"}
{"compound": "O=C1CSC(=S)N1/N=C/c1cc(Br)c(O)c(Br)c1", "activation": "inconclusive: 53%"}
{"compound": "CCOC(=O)N1C/C(=C\\c2ccccc2)C(=O)/C(=C/c2ccccc2)C1", "activation": "inconclusive: 40.1%"}
{"compound": "OC(CNC1CCCC1)COc1ccc(-c2ccccc2)cc1", "note": "(configuration not stated)", "activation": "inactive: -2.63%"}
{"compound": "Cc1cc(C)cc(NC(=S)NN)c1", "activation": "inactive: 2.23%"}
{"compound": "COc1ccc(CCNC(=O)c2n[nH]c3ccccc23)cc1", "activation": "inconclusive: 31.5%"}
{"compound": "Cc1cccc(Nc2nnc(SCC3CCCCO3)s2)c1", "note": "(configuration not stated)", "activation": "inconclusive: 50.2%"}
{"compound": "COc1cc(-c2nnc3sc(Cc4ccccc4)nn23)cc(OC)c1OC", "activation": "inconclusive: 40.6%"}
{"compound": "COc1ccc(CC(=O)Oc2ccc(C)cc2C)cc1", "activation": "inactive: 2.44%"}
{"compound": "O=C(NCCSCc1c(F)cccc1Cl)c1ccc(CN2CCOCC2)cc1", "activation": "inconclusive: 34.2%"}
{"compound": "CCC(C)NC(=O)c1ccccc1NC(=O)/C(=C/c1ccc(OC)cc1)c1ccccc1", "note": "(configuration not stated)", "activation": "inconclusive: 34.2%"}
{"compound": "CCOc1cc(S(=O)(=O)NCc2ccncc2)ccc1Cl", "activation": "inactive: 3.17%"}
{"compound": "COc1cccc(C2c3c(-c4ccccc4O)n[nH]c3C(=O)N2Cc2ccco2)c1", "note": "(configuration not stated)", "activation": "inactive: -2.58%"}
{"compound": "Cc1cccc(NC(=O)c2ccc(Cl)c(S(=O)(=O)N3CCCCC3)c2)n1", "activation": "inconclusive: 48.1%"}
{"compound": "Cc1cc(C)nc(NC(=O)c2ccc(Br)cc2)n1", "activation": "inconclusive: 34.6%"}
{"compound": "COc1ccc(NC(=O)CCC2CCCC2)cc1OC", "activation": "inconclusive: 40.1%"}
{"compound": "COc1ccc(C(=O)Oc2cccc(Nc3ncnc4ccccc34)c2)cc1OC", "activation": "inconclusive: 33.8%"}
{"compound": "COc1cc(/C=N/NC(=S)Nc2cccc(S(=O)(=O)N(C)C)c2)cc(OC)c1O", "activation": "inactive: 13.9%"}
{"compound": "C=CCSc1nnc(NC(=O)Cc2ccc(OC)c(OC)c2)s1", "activation": "inconclusive: 33.3%"}
{"compound": "COc1ccc(OCc2nnc(SCC(=O)N3CCCc4ccccc43)n2-c2ccc(C)cc2)cc1", "activation": "inconclusive: 43%"}
{"compound": "O=[N+]([O-])c1cccnc1N/N=C/c1ccccc1O", "activation": "inactive: -4.22%"}
